From PubChem BioAssay AID493014 (National Center for Advancing Translational Sciences (NCATS), 2011)
The other results are listed elsewhere or left out. These are further read-outs of the screen, such as a control signal, another cell line or another target. No call is given for them. The list favours compounds with an active or inconclusive main result. Words in brackets tell the shape of the fitted curve; partial curves, single points and poor fits give uncertain potencies.

Experiment: qHTS Assay to Find Inhibitors of Chronic Active B-Cell Receptor Signaling
Conditions: ABC-DLBCL IkBa-CBG/CBR reporter, luminescence ratio (green luciferase fused to IkBa over red control in TMD8 lymphoma cells), 4 h
In short: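 Compounds up to 46 uM were incubated four hours with TMD8 cells whose green CBG68 luciferase is fused to IkappaBalpha; red CBR luminescence normalised the signal, and concentration-effect curves were fitted to fusion, red and ratio data.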

[1] = measured here: CBR red luminescence, cell number
[2] = measured here: IkBa-CBG green luminescence

Compound | AC50 [1] | AC50 [2]
C[C@H](CO)N1C[C@H](C)[C@@H](CN(C)Cc2ccccc2)Oc2ccc(NC(=O)CCCCCC(=O)Nc3ccccc3N)cc2C1=O | 20.6 µM [rising, single point] | 
COc1cccc(CNC(=O)Cc2ccc(Br)cc2)c1 | 13 µM [falling, partial curve] | 
C/C=C/C=C/C(=O)O | 29.1 µM [rising, single point] | 
CCc1cccc(C)c1N=Cc1c(O)c2ccccc2oc1=O | 1.26 µM [falling, full curve] | 
C=C(C)COc1ccc2c(C)c(CC(=O)OC)c(=O)oc2c1C | 4.11 µM [falling, single point] | 3.26 µM [rising, partial curve, poor fit]
COCc1[nH]nc2c1C(c1ccnc3ccccc13)C(C#N)=C(N)O2 (stereo not drawn) | 6.31 µM [falling, single point] | 
Cc1ccc(C(=O)NNC(=O)c2cc(C)nc3ccccc23)cc1 | 20.6 µM [rising, single point] | 
CCN(CC)C(=O)c1c2c(nc3ccccc13)-c1ccccc1CC2 | 5.8 µM [falling, partial curve] | 
Oc1ccccc1N1CCN(c2ncnc3sc(-c4ccccc4)cc23)CC1 | 11.2 µM [falling, single point] | 
CCN=c1sc(C(=O)OC)cc(=O)n1CC | 3.66 µM [falling, partial curve, poor fit] | 
CN(C)C(=O)c1cc(Cl)ccc1Sc1cc(Cl)ccc1Cl | 16.4 µM [falling, single point] | 
COc1cc(-n2c(=O)c3ccccc3n(CC(=O)OCc3ccccc3)c2=O)cc(OC)c1OC | 15.8 µM [rising, partial curve, poor fit] | 
COc1cccc(C(=O)N/N=C(\C)CC(=O)Nc2ccc(N(C)C)cc2)c1 | 1.78 µM [falling, full curve] | 
O=C(Cn1nc2sc3ccccc3n2c(=O)c1=O)c1cccs1 | 0.1 µM [rising, full curve, poor fit] | 
CC1=C(C(=O)OC2CCCCC2)C(c2cccs2)n2c(nc3ccccc32)N1 (stereo not drawn) | 18.4 µM [falling, partial curve] | 
Cc1ccccc1C(=O)Nc1ccc2c(c1)C(=O)NC2=O | 11.2 µM [falling, partial curve, poor fit] | 
O=C(NNc1ccnc2cc(Cl)ccc12)C1CCCCC1 | 3.98 µM [rising, full curve] | 
O=C(NCCCN1CCOCC1)c1sc2cc(F)ccc2c1Cl | 0.355 µM [rising, full curve, poor fit] | 
Cc1ccc(NC(=O)CN(C)C(=O)CSc2nc3ccccc3c(=O)n2Cc2ccco2)cc1 | 14.1 µM [falling, single point] | 
CCN(CC)C(=O)c1ccc(COc2ccc(Cl)c(C)c2)o1 | 12.6 µM [rising, partial curve, poor fit] | 
COC(=O)Nc1ccc(S(=O)(=O)N2CCCc3ccccc32)cc1 |  | 16.4 µM [falling, partial curve, poor fit]

In a second layout: results already given.

| Compound | AC50 [1] | AC50 [2] |
| --- | --- | --- |
| Cc1ccc(NC(=O)CN(C)C(=O)CSc2nc3ccccc3c(=O)n2Cc2ccco2)cc1 | 14.1 µM [falling, single point] |  |
| CCN(CC)C(=O)c1ccc(COc2ccc(Cl)c(C)c2)o1 | 12.6 µM [rising, partial curve, poor fit] |  |
| COC(=O)Nc1ccc(S(=O)(=O)N2CCCc3ccccc32)cc1 |  | 16.4 µM [falling, partial curve, poor fit] |

The list goes on.

Compound | AC50 [1] | AC50 [2]
O=C(NNC1=NS(=O)(=O)c2ccccc21)c1cccc([N+](=O)[O-])c1 | 17.8 µM [falling, partial curve, poor fit] | 
COc1ccc(-n2c(SCc3nnc(-c4ccccc4)o3)nnc2-c2ccccc2)cc1 | 35.5 µM [rising, single point] | 
Cc1ccc(NC(=O)C(=O)c2ccc(C)cc2)cc1 | 31.6 µM [falling, single point] | 
Cc1nnc(SCC2=C(C(=O)O)N3C(=O)C(NC(=O)Cn4nc(C(F)F)c(Cl)c4C)C3SC2)s1 (stereo not drawn) | 3.98 µM [falling, full curve, poor fit] | 
CCn1nccc1C(=O)Nc1ccc(C(=O)OC(C)C)cc1 | 3.16 µM [rising, full curve, poor fit] | 
O=C(Nc1cccc(S(=O)(=O)Nc2ccccc2Cl)c1)c1ccc(Cl)nc1 | 20.6 µM [falling, partial curve, poor fit] | 
CCC(CC)=NNC(=O)c1ccccc1OCc1ccc(F)cc1 | 8.2 µM [falling, partial curve] | 
CC(=O)c1ccc(S(=O)(=O)N2CCN(C(=O)c3ccc(-n4cncn4)c([N+](=O)[O-])c3)CC2)cc1 | 29.1 µM [falling, single point] | 
CCC(CO)Nc1ncnc2c1cnn2-c1ccc(C)cc1 (stereo not drawn) | 11.2 µM [falling, partial curve, poor fit] | 2.82 µM [rising, full curve, poor fit]
O=C(CN1C(=O)C2CC=CCC2C1=O)OCCN1C(=O)c2ccccc2C1=O (stereo not drawn) | 11.2 µM [rising, partial curve] | 
Fc1ccc(-c2nc3ccccc3c3nc4ccccc4n23)cc1 | 29.1 µM [rising, single point] | 
C=CCNc1nnc(Sc2ncccc2[N+](=O)[O-])s1 | 35.5 µM [falling, single point] | 
C/C=C/c1ccc(OCCCNC)c(OC)c1 | 9.2 µM [falling, partial curve, poor fit] | 
CC1CC(C)CN(C(=O)c2nn(C)c3c2CSc2ccccc2-3)C1 (stereo not drawn) |  | 14.1 µM [rising, partial curve, poor fit]
O=C(CSc1ccccc1F)Nc1ccc(N2CCOCC2)cc1 | 23.1 µM [rising, single point] | 
CC(C)(C)c1csc(NC2=NS(=O)(=O)c3ccccc32)n1 | 23.1 µM [falling, single point] | 
CCOC(=O)C1CCCN(C(=O)CCn2nc(-c3ccccc3)ccc2=O)C1 (stereo not drawn) | 0.126 µM [falling, full curve, poor fit] | 
O=C(Nc1ccc(NC(=O)C2CC2)nc1)c1cnccn1 | 22.4 µM [rising, partial curve, poor fit] | 
CCC(=O)NCCc1nc2cc(NC(=O)c3ccc(OC)cc3)ccc2n1C | 1.3 µM [falling, full curve] | 
O=C(NCCOc1ccccc1)c1cncc(Br)c1 | 6.51 µM [rising, single point] | 
